Some of the results follow. Further columns of the screen follow, without active or inactive calls. Compounds called inactive in the main read-out are mostly missing here. Potencies come from curve fits of mixed quality, noted in brackets.
Test: qHTS Assay to Find Inhibitors of Chronic Active B-Cell Receptor Signaling
Conditions: ABC-DLBCL IkBa-CBG/CBR reporter, luminescence ratio (green luciferase fused to IkBa over red control in TMD8 lymphoma cells), 4 h
Method in brief: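 Compounds up to 46 uM were incubated four hours with TMD8 cells whose green CBG68 luciferase is fused to IkappaBalpha; red CBR luminescence normalised the signal, and concentration-effect curves were fitted to fusion, red and ratio data.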

[1] = measured here: CBR red luminescence, cell number
[2] = measured here: IkBa-CBG green luminescence

Structure (SMILES)	AC50 [1]	AC50 [2]
Cc1cccc(C(=O)n2c(=S)nc3cc(C)ccn32)c1	1.78 µM [falling, full curve, poor fit]	–
CCS(=O)(=O)N1CCc2nc(-c3ccccc3)sc2C1	15.8 µM [falling, single point]	–
COc1ccc(-c2nc3cnccn3c2NC2CCCCC2)cc1-c1cccc(Cl)c1	1.64 µM [rising, partial curve]	–
CSc1nnc2c(n1)OC(c1ccsc1)N(C(C)=O)c1ccccc1-2 (centres undefined)	29.1 µM [falling, single point]	–
COc1ccc(NC(=O)C2CCC(N3C(=O)C4C5C=CC(C5)C4C3=O)CC2)cc1 (centres undefined)	1.3 µM [rising, full curve, poor fit]	–
Cc1cc(C)cc(NC(=O)CCC(=O)Nc2nnc(C(F)(F)F)s2)c1	3.98 µM [rising, full curve, poor fit]	–
CCN(CC)C(=O)CSc1nc2c(sc(=S)n2Cc2ccco2)c(=O)n1-c1ccccc1	12.6 µM [falling, single point]	–
Cc1cc(C(=O)N/N=C/C(Cl)=C/c2ccccc2)c(C)o1	12.6 µM [falling, partial curve]	–
CCOc1cccc2sc(N3CCN(C(=O)c4ccco4)CC3)nc12	2 µM [rising, full curve, poor fit]	–
CC(=O)OCCN(C)c1cc(SC(C)C)c2nonc2c1[N+](=O)[O-]	12.6 µM [falling, partial curve, poor fit]	–
Cc1ccc2nc(-c3ccc4c(c3)OCCO4)cn2c1	35.5 µM [falling, single point]	–
COc1ccc(-c2coc3cc(O)cc(O)c3c2=O)cc1	6.51 µM [rising, partial curve]	–
CC(=O)N(C)c1ccc(N=Cc2c(O)ccc3ccccc23)cc1	35.5 µM [falling, single point]	–
C=CCN(c1ccccc1OC)S(=O)(=O)c1cccc(C(=O)NC2=NCCS2)c1	2.91 µM [falling, partial curve]	–
O=C(COc1ccccc1-c1ccccc1)NN=C1CCCC1	1.58 µM [rising, full curve, poor fit]	2.51 µM [falling, full curve]
COc1ccc(C(=O)c2oc3ccc(Br)cc3c2NC(C)=O)cc1	0.517 µM [rising, full curve, poor fit]	–
CCC(Sc1nc2ccsc2c(=O)n1-c1ccc(Cl)c(C)c1)C(=O)NCc1ccco1 (centres undefined)	18.4 µM [falling, single point]	20.6 µM [rising, partial curve, poor fit]
Cc1ccc(NC(=O)CCC(=O)NNC(=S)Nc2ccc(F)cc2F)cc1C	14.1 µM [falling, partial curve, poor fit]	–
Nc1ccc2nc(-c3ccc(N)c(Cl)c3)[nH]c2c1	11.6 µM [falling, partial curve]	–
C=CCn1c(SCC(N)=O)nnc1-c1cc2c(s1)CCC(CC)C2 (centres undefined)	0.411 µM [rising, full curve, poor fit]	–
COc1cc(OC)c2c(c1)S(=O)(=O)C(c1ccccc1)=C2N	2.24 µM [rising, full curve, poor fit]	–

Structure (SMILES)	AC50 [1]	AC50 [2]
O=C(CN1C(=O)C2CC=CCC2C1=O)Nc1nc2ccc(F)cc2s1 (centres undefined)	35.5 µM [falling, single point]	5.62 µM [rising, full curve, poor fit]
COC(=O)Cn1c(=NC(=O)c2ccc(Cl)s2)sc2cc(F)ccc21	0.461 µM [rising, full curve]	–
Cc1ccc(/C=N/Nc2ccccn2)s1	0.708 µM [rising, full curve, poor fit]	–
CCn1c(CSc2nc3ccccc3[nH]2)n[nH]c1=S	6.51 µM [falling, single point]	–
O=c1[nH]nc(CNc2ccc(C(F)(F)F)cc2)c2ccccc12	1.78 µM [rising, full curve, poor fit]	–
O=C1NCC(COc2cccc3ccccc23)O1 (centres undefined)	12.6 µM [falling, partial curve, poor fit]	–
COc1cc(C(=O)N/N=C(\C)c2ccc3c(c2)OCO3)cc(OC)c1OC	6.31 µM [rising, full curve]	8.91 µM [falling, partial curve]
CCCOc1cccc(C(=O)Nc2ccccc2C(=O)N2CCN(C)CC2)c1	10 µM [rising, partial curve]	–
Cc1ccc(F)cc1NC(=O)CCOc1ccccc1	20 µM [falling, partial curve, poor fit]	–
COc1cc(CCCN2C(N)=NC[C@@H]2c2ccccc2)cc(OC)c1OC	6.31 µM [falling, single point]	–
CCn1c(SCC(=O)NNC(=O)Cc2ccccc2)nnc1-c1ccccc1	3.98 µM [falling, single point]	–
CCOC(=O)CSC1=NC(=O)/C(=C/c2ccc(OC)cc2)S1	29.1 µM [falling, single point]	–
COc1ccc(OC)c(C(=O)N/N=C/c2ccccn2)c1	0.251 µM [rising, full curve, poor fit]	–
C#CCOCCOCCOCCNc1nc(N2CCOCC2)nc(N2CCN(C(=O)[C@H]([C@@H](C)O)n3cc(CCCCN)nn3)CC2)n1	16.4 µM [rising, single point]	–
Cc1c(C#N)c2ccccc2n1CC(=O)NCc1cccnc1	29.1 µM [rising, single point]	–
O=C1Nc2ccccc2N(O)N1c1cc(-c2cccc(Cl)c2)no1	1.03 µM [falling, full curve]	–
O=C(Nc1ccc(OC(F)(F)F)cc1)c1[nH]ncc1[N+](=O)[O-]	35.5 µM [falling, single point]	–
COc1ccc(CN(C)CC(=O)c2c(N)n(Cc3ccccc3)c(=O)n(C)c2=O)c(OC)c1	6.51 µM [rising, single point]	–
CN1c2ccccc2C(O)=C(C(=O)Nc2ccccc2)S1(=O)=O	12.6 µM [falling, partial curve]	–
CCOCCCNC(=O)CSCc1nc(-c2ccc(SC)cc2)oc1C	7.94 µM [rising, partial curve, poor fit]	–
Cc1cc(C)c[n+](CC(=O)c2ccc(-c3ccccc3)cc2)c1	5.8 µM [falling, full curve, poor fit]	–

Structure (SMILES)	AC50 [1]	AC50 [2]
O=C(O)c1c2c(nc3ccccc13)/C(=C/c1cccc([N+](=O)[O-])c1)CCC2	6.31 µM [rising, partial curve, poor fit]	–
CS(=O)(=O)N1CCN(c2ccccc2NC(=O)c2ccc(Cl)cc2)CC1	1.84 µM [rising, full curve, poor fit]	–
O=c1[nH][nH]c(-c2ccccc2O)c1C(C[N+](=O)[O-])c1ccc(Cl)cc1Cl (centres undefined)	0.82 µM [falling, full curve]	–
O=[N+]([O-])c1cccc(-c2noc3c2-c2nc(Cc4cccc5ccccc45)sc2CC3)c1	4.11 µM [rising, full curve, poor fit]	–
CCNC(=S)N/N=C(\C)c1cccc(C(F)(F)F)c1	20 µM [falling, single point]	31.6 µM [falling, single point]
COc1ccc(Cn2c(=O)[nH]c3cc(C(=O)NCCCN4CCCCCC4)ccc3c2=O)cc1	25.1 µM [rising, single point]	–
O=C(CNCCc1ccc(Cl)cc1Cl)NCc1ccco1	0.1 µM [rising, full curve, poor fit]	–
CCOc1ccc(C(=O)CN2CCN(S(=O)(=O)c3ccc(Br)cc3)CC2)cc1	28.2 µM [falling, single point]	–
Cc1ccc(C(=O)NCc2ccc3c(c2)CCO3)cc1C	3.16 µM [rising, single point]	–
CCN(CC)CCC(=O)Nc1cccc2c1C(=O)c1ccccc1C2=O	7.08 µM [falling, partial curve]	10 µM [rising, partial curve, poor fit]
S=C(Nc1ccc(Br)cc1Cl)Nn1cnnc1	17.8 µM [rising, single point]	–
COc1ccc(-c2cc3nc(C)c(CCC(=O)NCc4ccc(F)cc4)c(C)n3n2)c(OC)c1	0.562 µM [falling, full curve, poor fit]	–
O=C(CSc1nc2ccccc2c(=O)n1-c1ccc(OC(F)F)cc1)NCc1cccs1	5.8 µM [falling, full curve]	–
CNC(=S)N/N=C/c1c(C)nn(-c2cccc(Cl)c2)c1Cl	0.517 µM [rising, full curve, poor fit]	–
COc1ccccc1-c1cc(C(F)(F)F)nc(S(=O)(=O)CCCC(=O)NCc2ccc(F)cc2)n1	8.91 µM [falling, partial curve]	–
CCOC(=O)c1ccccc1NC(=O)CSc1cccc[n+]1[O-]	31.6 µM [falling, single point]	–
O=C(Nc1ccc2ccccc2n1)c1ccccc1Br	0.708 µM [falling, full curve]	–
O=C(Nc1ccc(Cl)cc1)ON=C1CCCC1	3.66 µM [rising, full curve, poor fit]	–
O=C(Cn1cc(SCc2ccc(Cl)cc2)c2ccccc21)N1CCOCC1	16.4 µM [falling, single point]	–
CC(CCc1ccccc1)NCc1ccncc1 (centres undefined)	6.51 µM [rising, single point]	–
CC(=O)Oc1ccc2c(=O)c(-c3nc4ccccc4s3)coc2c1	2.82 µM [falling, partial curve]	–

In the list so far, 4 have bromine:
Structure (SMILES)	AC50 [1]	AC50 [2]
COc1ccc(C(=O)c2oc3ccc(Br)cc3c2NC(C)=O)cc1	0.517 µM [rising, full curve, poor fit]	–
CCOc1ccc(C(=O)CN2CCN(S(=O)(=O)c3ccc(Br)cc3)CC2)cc1	28.2 µM [falling, single point]	–
S=C(Nc1ccc(Br)cc1Cl)Nn1cnnc1	17.8 µM [rising, single point]	–
O=C(Nc1ccc2ccccc2n1)c1ccccc1Br	0.708 µM [falling, full curve]	–

Source: PubChem BioAssay AID493014 (National Center for Advancing Translational Sciences (NCATS), 2011)
